Results are given in words; binding and its absence hold for the method and conditions named. Binding can be weak; no strength is given. For some of these results: Tags and fused reporters may be left off the sequences shown. For some of these results: In cells and extracts the contact can be indirect. Values belong to the molecule of their own block, whether it stands above or below them.
Assays:
[1] = target: T1, endogenous LSF (human (endogenous in HEK293T)) (UniProt Q12800); assay: co-IP; HEK293T cell lysates with anti-LSF antibody (Millipore 17-10252) against control IgG, immunoblot; endogenous proteins; also from cells treated with vehicle or 2.5 μM FQI1 for 24 h (α-tubulin co-precipitate reduced)
T1 sequence: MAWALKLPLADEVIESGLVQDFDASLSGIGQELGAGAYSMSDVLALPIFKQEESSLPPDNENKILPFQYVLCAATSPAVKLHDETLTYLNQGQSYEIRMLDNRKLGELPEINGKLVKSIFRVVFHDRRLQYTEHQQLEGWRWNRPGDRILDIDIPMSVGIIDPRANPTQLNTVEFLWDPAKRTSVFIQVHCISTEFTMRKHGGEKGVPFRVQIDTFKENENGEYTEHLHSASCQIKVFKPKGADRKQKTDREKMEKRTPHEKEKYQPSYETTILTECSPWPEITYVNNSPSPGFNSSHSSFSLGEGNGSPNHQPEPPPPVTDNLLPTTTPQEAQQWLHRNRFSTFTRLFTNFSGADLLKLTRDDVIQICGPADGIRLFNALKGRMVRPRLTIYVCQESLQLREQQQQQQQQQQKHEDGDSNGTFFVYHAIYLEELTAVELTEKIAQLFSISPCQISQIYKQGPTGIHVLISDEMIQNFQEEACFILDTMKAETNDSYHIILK

[2] = target: T2, endogenous SET8 (N-lysine methyltransferase 5A) (human (endogenous in HEK293T)) (UniProt Q9NQR1); assay: co-IP; 1 mg total HEK293T cellular extract with 5 μg anti-SET8 antibody (Active Motif or Millipore), normal IgG as control, immunoblot; endogenous proteins; also from cells treated with FQI1 (less tubulin co-precipitated, Fig. S4C)
T2 sequence: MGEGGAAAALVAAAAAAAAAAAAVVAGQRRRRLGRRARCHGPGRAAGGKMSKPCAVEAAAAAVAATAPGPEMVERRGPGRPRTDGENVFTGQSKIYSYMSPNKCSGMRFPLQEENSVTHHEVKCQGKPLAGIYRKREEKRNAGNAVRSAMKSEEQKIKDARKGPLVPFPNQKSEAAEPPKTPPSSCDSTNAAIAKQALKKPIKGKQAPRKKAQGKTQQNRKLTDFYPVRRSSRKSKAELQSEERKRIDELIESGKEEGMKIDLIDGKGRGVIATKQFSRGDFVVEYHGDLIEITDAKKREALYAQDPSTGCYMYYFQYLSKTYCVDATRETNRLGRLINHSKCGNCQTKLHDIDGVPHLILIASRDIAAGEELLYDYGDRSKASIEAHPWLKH

GST-LSF, full length = target: T3, GST-LSF, full length (UniProt Q12800); assay: pull-down; GST pull-down: about 10 μg GST fusion protein on GSH-Sepharose beads, incubated 2 h at 4 °C with purified tubulin or purified His-LSF; immunoblot; both purified
T3 sequence: T1 sequence

[3] = target: GST fused to the N-terminal portion of SET8 (human); assay: as above

- binding [1]: binds
- binding [2]: binds
Molecule: endogenous α-tubulin (human (endogenous in HEK293T))

- binding (GST-LSF, full length): binds weakly
Molecule: β-tubulin of purified porcine brain tubulin

- binding [3]: binds
B1: His-tagged LSF (protein, UniProt Q12800 1-502)
chain: T1 sequence

From article PMC7135998
